Two molecules from doi:10.1101/2022.09.20.508642 can be followed below.

Experiment [1] concerns the target STRUBBELIG (SUB) extracellular domain, yeast two-hybrid fusion (Arabidopsis thaliana) (UniProt Q8RWZ1). Put plainly: two-hybrid.
Experiment [2] addresses T1, STRUBBELIG (SUB), C-terminal fluorescent protein fusion expressed in Arabidopsis (Arabidopsis thaliana) (UniProt Q8RWZ1).
T1 sequence: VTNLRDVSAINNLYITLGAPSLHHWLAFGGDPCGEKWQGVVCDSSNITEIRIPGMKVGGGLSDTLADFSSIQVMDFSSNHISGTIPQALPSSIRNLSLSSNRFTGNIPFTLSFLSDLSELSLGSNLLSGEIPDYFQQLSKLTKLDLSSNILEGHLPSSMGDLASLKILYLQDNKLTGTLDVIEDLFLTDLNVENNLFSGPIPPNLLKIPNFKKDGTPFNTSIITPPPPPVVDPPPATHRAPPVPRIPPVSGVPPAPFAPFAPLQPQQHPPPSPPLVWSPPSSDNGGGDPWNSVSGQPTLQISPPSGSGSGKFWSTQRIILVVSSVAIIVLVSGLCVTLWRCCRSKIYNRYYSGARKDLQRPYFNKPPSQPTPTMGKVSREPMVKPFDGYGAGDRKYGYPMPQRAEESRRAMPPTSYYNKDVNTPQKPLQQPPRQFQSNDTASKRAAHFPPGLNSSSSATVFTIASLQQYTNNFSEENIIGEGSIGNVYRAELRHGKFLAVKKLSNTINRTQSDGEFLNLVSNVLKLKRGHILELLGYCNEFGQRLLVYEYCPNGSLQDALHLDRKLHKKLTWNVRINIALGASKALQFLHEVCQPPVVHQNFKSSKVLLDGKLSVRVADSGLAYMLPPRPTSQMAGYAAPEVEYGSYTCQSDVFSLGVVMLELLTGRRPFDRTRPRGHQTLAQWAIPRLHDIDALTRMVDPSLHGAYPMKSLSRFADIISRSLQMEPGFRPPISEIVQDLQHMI
As to the kind of experiment: FRET or BRET. Background: BRET reads energy transfer from a luciferase to a nearby fluorophore.

For experiment [3], the target named is T1, STRUBBELIG (SUB), C-terminal fluorescent protein fusion expressed in Arabidopsis (Arabidopsis thaliana). Put plainly: FRET or BRET. This is another data set of the same source.

Like-named read-outs stand apart in the source and are kept apart here. No constants are given. Whether binding was seen depends on the method and setting. For part of these data: Binding seen in cells or lysates may run through a third protein. Some results given as binding are weak or reduced against the parent protein; the word gives no strength. Tags and fused reporters may be left off the sequences shown.

B1: STRUBBELIG (SUB) extracellular domain, yeast two-hybrid fusion (domain or fragment, UniProt Q8RWZ1 25-341)
chain: VTNLRDVSAINNLYITLGAPSLHHWLAFGGDPCGEKWQGVVCDSSNITEIRIPGMKVGGGLSDTLADFSSIQVMDFSSNHISGTIPQALPSSIRNLSLSSNRFTGNIPFTLSFLSDLSELSLGSNLLSGEIPDYFQQLSKLTKLDLSSNILEGHLPSSMGDLASLKILYLQDNKLTGTLDVIEDLFLTDLNVENNLFSGPIPPNLLKIPNFKKDGTPFNTSIITPPPPPVVDPPPATHRAPPVPRIPPVSGVPPAPFAPFAPLQPQQHPPPSPPLVWSPPSSDNGGGDPWNSVSGQPTLQISPPSGSGSGKFWSTQR
As to B1, in experiment [1], the binding result is “binds”.

B2: STRUBBELIG (SUB), C-terminal fluorescent protein fusion expressed in Arabidopsis (receptor, UniProt Q8RWZ1 25-768)
chain: VTNLRDVSAINNLYITLGAPSLHHWLAFGGDPCGEKWQGVVCDSSNITEIRIPGMKVGGGLSDTLADFSSIQVMDFSSNHISGTIPQALPSSIRNLSLSSNRFTGNIPFTLSFLSDLSELSLGSNLLSGEIPDYFQQLSKLTKLDLSSNILEGHLPSSMGDLASLKILYLQDNKLTGTLDVIEDLFLTDLNVENNLFSGPIPPNLLKIPNFKKDGTPFNTSIITPPPPPVVDPPPATHRAPPVPRIPPVSGVPPAPFAPFAPLQPQQHPPPSPPLVWSPPSSDNGGGDPWNSVSGQPTLQISPPSGSGSGKFWSTQRIILVVSSVAIIVLVSGLCVTLWRCCRSKIYNRYYSGARKDLQRPYFNKPPSQPTPTMGKVSREPMVKPFDGYGAGDRKYGYPMPQRAEESRRAMPPTSYYNKDVNTPQKPLQQPPRQFQSNDTASKRAAHFPPGLNSSSSATVFTIASLQQYTNNFSEENIIGEGSIGNVYRAELRHGKFLAVKKLSNTINRTQSDGEFLNLVSNVLKLKRGHILELLGYCNEFGQRLLVYEYCPNGSLQDALHLDRKLHKKLTWNVRINIALGASKALQFLHEVCQPPVVHQNFKSSKVLLDGKLSVRVADSGLAYMLPPRPTSQMAGYAAPEVEYGSYTCQSDVFSLGVVMLELLTGRRPFDRTRPRGHQTLAQWAIPRLHDIDALTRMVDPSLHGAYPMKSLSRFADIISRSLQMEPGFRPPISEIVQDLQHMI
For B2, the binding entry in experiment [2] and in experiment [3] was “binds” in each case.
